Experiment: peptide made by a vendor
Conditions: 545 um (so in the source)

Q: For TAMRA-labeled NPFF, which “purity (crude or final not stated)” value is on record?
A: 96% pure

Reference: US20050130197A1 (priority 2003, published 2005)
